# Where a name gives a salt, the structure may show the parent alone. The list shows a part of the results. Single values are uncertain here, since repeats match poorly.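 Cells: ReNCell VM human fetal ventral-midbrain neural progenitors, differentiated mitogen-free. Blinded raters compared doublecortin-stained (early neurons) or tyrosine hydroxylase-stained (dopaminergic neurons) images with untreated wells, where 0 means no change. After repeats and both raters were averaged, compounds scoring 2 or above became hits for retesting.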 Where a SMILES comes first, the peptide text is derived from it.
# Tested on: ReNCell VM
# Experiment: neuronal differentiation score (DCX+ cell fraction vs untreated, manual image score) (score (-3 to 3)); higher = more neuronal differentiation
# Details: library: LOPAC; 2 uM; 2 weeks
row,Compound,neuronal differentiation score
1,C[C@]12CC[C@@H]3c4ccc(O)cc4CC[C@H]3[C@@H]1CC[C@@H]2O [beta-Estradiol],inactive: 0
2,Fc1ccc([C@@H]2CCNC[C@H]2COc2ccc3c(c2)OCO3)cc1 [Paroxetine hydrochloride hemihydrate (MW = 374.83)],inactive: 0
3,O=c1cc(O)cc(/C=C/c2ccc(O)c(O)c2)o1 [Hispidin],inactive: 0
4,O=C1NC(=S)S/C1=C\c1cc(Br)ccc1OCc1ccccc1Br [PRL-3 Inhibitor I],inactive: 0
5,CC(C)(C)c1cc(/C=C(\C#N)C(N)=S)cc(C(C)(C)C)c1O [Tyrphostin AG 879],inactive: 0
6,Cc1[nH]c(=O)c(C#N)cc1-c1ccc2nccn2c1 [Olprinone hydrochloride],inactive: 0

# Same assay, conditions: library: Prestwick; 2 uM; 2 weeks
row,Compound,neuronal differentiation score
1,CCOC(=O)n1ccn(C)c1=S [Carbimazole],inactive: 0
2,CCCCCCCCNC(C)C(O)c1ccc(SC(C)C)cc1 (stereo not drawn) [Suloctidil],inactive: 0
3,COc1ccc(NS(=O)(=O)c2ccc(N)cc2)nn1 [Sulfamethoxypyridazine],inactive: 0
4,Cc1cc2cc3c(C)cc(=O)oc3c(C)c2o1 [Trioxsalen],inactive: 0
5,CCCCc1cc2ccccc2c(OCCN(C)C)n1 [Dimethisoquin hydrochloride],inactive: 0
6,O=C(O)c1cc(/N=N/c2ccc(S(=O)(=O)Nc3ccccn3)cc2)ccc1O [Sulfasalazine],inactive: 0
7,CC(=O)c1ccc2c(c1)N(CCCN(C)C)c1ccccc1S2 [Acetopromazine maleate salt],inactive: 0
8,CN1CCCN(C(c2ccccc2)c2ccc(Cl)cc2)CC1 (stereo not drawn) [Homochlorcyclizine dihydrochloride],inactive: 0
9,Cc1cccc(Nc2ccccc2C(=O)O)c1C [Mefenamic acid],inactive: 0
10,CN(C)C(=N)NC(=N)N [Metformin hydrochloride],inactive: 0

# Same assay, conditions: library: Spectrum; 2 uM; 2 weeks
row,Compound,neuronal differentiation score
1,CC(=O)OCC(=O)[C@@]1(O)[C@H](OC(C)=O)C[C@H]2[C@@H]3CCC4=CC(=O)C=C[C@]4(C)[C@@]3(F)[C@@H](O)C[C@@]21C,inactive: 0
2,COc1cc(O)c(C(=O)/C=C/c2ccc(O)c(OC)c2)c(OC)c1,inactive: 0
3,O=c1cc(-c2ccccc2O)oc2cc(O)ccc12,inactive: 0
4,COC(=O)/C(=C1/OC(=O)C(c2ccccc2)=C1O)c1ccccc1,inactive: 0
5,CCc1cc(C(N)=S)ccn1,inactive: 0
6,CCCc1nc(C(C)(C)O)c(C(=O)OCc2oc(=O)oc2C)n1Cc1ccc(-c2ccccc2-c2nnn[nH]2)cc1,inactive: 0
7,CCOC(=O)C1=C(COCCN)NC(C)=C(C(=O)OC)C1c1ccccc1Cl (stereo not drawn),inactive: 0
8,C[C@H]1[C@H](C)CC[C@]2(C(=O)O)CC[C@]3(C)C(=CC[C@@H]4[C@@]5(C)C[C@@H](O)[C@H](O)[C@@](C)(CO)[C@@H]5[C@H](O)C[C@]43C)[C@H]12,inactive: 0
9,CC(C)n1c(/C=C/C(O)CC(O)CC(=O)O)c(-c2ccc(F)cc2)c2ccccc21 (stereo not drawn),active: 3
10,CC[C@H]1OC(=O)[C@H](C)[C@@H](O[C@H]2C[C@@](C)(OC)[C@@H](O)[C@H](C)O2)[C@H](C)[C@@H](O[C@@H]2O[C@H](C)C[C@H](N(C)C)[C@H]2O)[C@](C)(O)C[C@@H](C)/C(=N\OCOCCOC)[C@H](C)[C@@H](O)[C@]1(C)O,inactive: 0
11,O=c1c2cc(O)c(O)cc2oc2cc(O)c([C@@H]3O[C@H](CO)[C@@H](O)[C@H](O)[C@H]3O)c(O)c12,inactive: 0
12,CC(=O)O[C@@H]1CC[C@@]2(C)C(C[C@@H](OC(C)=O)[C@@]3(C)C4=CC(=O)O[C@@H](c5ccoc5)[C@]4(C)CCC23)C1(C)C (stereo partly drawn) [3alpha-ACETOXYDIHYDRODEOXYGEDUNIN],inactive: 0
13,Cc1ccc(NC(=O)c2ccc(CN3CCN(C)CC3)cc2)cc1Nc1nccc(-c2cccnc2)n1,inactive: 0
14,CC(C)[C@H](NC(=O)[C@H](CC(=O)O)NC(=O)[C@H](CCCCN)NC(=O)[C@@H](N)CCCN=C(N)N)C(=O)N[C@@H](Cc1ccc(O)cc1)C(=O)O (H-RKDVY-OH),inactive: 0
15,O=C(O)c1cc(=O)c2ccccc2o1,inactive: 0
16,CC(C)c1nc(N(C)S(C)(=O)=O)nc(-c2ccc(F)cc2)c1/C=C/[C@@H](O)C[C@@H](O)CC(=O)O,inactive: 0
17,Cc1ccccc1C(OCCN(C)C)c1ccccc1 (stereo not drawn),inactive: 0

# Two compounds picked at random from those above, as already listed:
row,Compound,neuronal differentiation score
17,Cc1ccccc1C(OCCN(C)C)c1ccccc1 (stereo not drawn),inactive: 0
5,CCc1cc(C(N)=S)ccn1,inactive: 0

# From the supplement of paper PMC4635364
